Data published in publication doi:10.1101/2020.01.31.928408.
No constants are given. Whether binding was seen depends on the method and setting. In cells and extracts the contact can be indirect. Some entries that bind do so weakly or less than the wild type. For some of these results: Tags and fused reporters may be left off the sequences shown.

Chains of the proteins cited; added tags and fusions are not shown.
UniProt Q0VGT2: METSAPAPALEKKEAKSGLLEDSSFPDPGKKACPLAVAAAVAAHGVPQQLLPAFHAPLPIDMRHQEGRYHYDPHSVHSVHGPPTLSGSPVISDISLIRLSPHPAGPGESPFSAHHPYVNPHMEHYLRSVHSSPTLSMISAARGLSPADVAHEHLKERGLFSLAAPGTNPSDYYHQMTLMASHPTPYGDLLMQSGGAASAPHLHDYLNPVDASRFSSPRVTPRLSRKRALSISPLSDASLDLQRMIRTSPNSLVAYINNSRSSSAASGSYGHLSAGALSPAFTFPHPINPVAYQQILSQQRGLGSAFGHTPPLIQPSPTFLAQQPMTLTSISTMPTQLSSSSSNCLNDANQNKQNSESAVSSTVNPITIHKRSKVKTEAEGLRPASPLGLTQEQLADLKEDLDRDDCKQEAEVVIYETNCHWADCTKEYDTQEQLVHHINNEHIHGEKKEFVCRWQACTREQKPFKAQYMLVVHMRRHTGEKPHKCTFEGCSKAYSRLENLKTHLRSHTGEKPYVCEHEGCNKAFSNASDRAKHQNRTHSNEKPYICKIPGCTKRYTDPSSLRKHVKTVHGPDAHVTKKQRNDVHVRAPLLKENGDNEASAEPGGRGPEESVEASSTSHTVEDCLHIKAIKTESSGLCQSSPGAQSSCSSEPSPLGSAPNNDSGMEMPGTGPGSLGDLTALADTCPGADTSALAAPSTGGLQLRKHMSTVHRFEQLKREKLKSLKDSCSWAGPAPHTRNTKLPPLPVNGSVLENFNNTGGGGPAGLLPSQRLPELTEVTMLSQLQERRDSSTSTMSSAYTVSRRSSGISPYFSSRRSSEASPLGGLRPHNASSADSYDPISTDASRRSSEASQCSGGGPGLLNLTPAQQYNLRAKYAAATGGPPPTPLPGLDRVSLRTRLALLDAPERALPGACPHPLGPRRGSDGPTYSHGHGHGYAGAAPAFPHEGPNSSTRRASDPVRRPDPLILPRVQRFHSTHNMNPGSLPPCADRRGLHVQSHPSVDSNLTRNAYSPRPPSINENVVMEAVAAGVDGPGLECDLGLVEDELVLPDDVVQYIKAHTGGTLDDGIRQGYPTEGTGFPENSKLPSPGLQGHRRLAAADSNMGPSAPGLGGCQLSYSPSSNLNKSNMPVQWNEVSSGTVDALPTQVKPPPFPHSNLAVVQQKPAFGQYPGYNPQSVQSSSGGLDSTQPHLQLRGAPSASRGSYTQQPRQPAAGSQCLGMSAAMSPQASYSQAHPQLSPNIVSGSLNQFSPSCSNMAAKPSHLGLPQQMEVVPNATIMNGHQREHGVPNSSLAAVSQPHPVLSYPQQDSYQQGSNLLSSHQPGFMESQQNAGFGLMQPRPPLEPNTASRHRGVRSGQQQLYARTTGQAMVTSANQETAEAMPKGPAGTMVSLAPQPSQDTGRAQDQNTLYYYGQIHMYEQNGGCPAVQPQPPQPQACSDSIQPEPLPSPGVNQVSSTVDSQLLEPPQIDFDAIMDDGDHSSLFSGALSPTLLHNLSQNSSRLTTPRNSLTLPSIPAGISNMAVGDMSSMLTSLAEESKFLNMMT
UniProt P47806: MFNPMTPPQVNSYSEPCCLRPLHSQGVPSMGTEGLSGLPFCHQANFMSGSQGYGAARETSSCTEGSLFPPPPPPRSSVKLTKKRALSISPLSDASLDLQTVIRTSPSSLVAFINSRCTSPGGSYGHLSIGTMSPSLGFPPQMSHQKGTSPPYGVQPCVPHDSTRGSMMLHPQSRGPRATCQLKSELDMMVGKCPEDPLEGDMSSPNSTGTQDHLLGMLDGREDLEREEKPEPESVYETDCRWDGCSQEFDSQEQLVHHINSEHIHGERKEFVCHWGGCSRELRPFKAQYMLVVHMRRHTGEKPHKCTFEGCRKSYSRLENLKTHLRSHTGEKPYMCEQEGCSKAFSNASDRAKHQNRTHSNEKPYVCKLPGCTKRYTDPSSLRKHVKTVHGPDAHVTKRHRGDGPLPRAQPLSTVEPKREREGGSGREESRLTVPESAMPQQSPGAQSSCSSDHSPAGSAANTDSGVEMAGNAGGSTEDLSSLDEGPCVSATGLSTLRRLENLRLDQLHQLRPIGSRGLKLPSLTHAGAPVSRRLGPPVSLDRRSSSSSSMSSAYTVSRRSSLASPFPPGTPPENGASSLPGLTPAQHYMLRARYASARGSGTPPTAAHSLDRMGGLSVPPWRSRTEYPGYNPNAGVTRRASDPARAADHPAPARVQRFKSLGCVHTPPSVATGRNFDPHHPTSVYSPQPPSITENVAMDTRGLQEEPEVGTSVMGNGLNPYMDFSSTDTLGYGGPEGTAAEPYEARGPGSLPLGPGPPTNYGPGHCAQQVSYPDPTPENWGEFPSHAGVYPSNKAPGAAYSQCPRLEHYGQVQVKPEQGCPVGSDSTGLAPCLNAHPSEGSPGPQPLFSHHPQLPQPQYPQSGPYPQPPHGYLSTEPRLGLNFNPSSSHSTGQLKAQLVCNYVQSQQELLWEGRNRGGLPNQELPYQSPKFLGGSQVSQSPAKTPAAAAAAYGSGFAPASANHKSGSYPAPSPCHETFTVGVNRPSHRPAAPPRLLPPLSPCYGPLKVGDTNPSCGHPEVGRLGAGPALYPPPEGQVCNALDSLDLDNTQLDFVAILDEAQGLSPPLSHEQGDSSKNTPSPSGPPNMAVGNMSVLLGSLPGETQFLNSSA

Experiments:
Test in all cases: co-IP
[1] = target: HA-tagged Gli2 (stable NIH/3T3 Flp-In cell line) (mouse) (UniProt Q0VGT2)
HA-tagged Gli1 (mouse) = HA-tagged Gli1 (mouse) (UniProt P47806)
[2] = target: HA-tagged Gli2 (transiently expressed in HEK293T) (mouse) (UniProt Q0VGT2)

Binder | binding [1] | binding (HA-tagged Gli1 (mouse)) | binding [2]
endogenous Xpo7 (protein, UniProt Q9EPK7 1-1087) MADHVQSLAQLENLCKQLYETTDTTTRLQAEKALVEFTNSPDCLSKCQLLLERGSSSYSQLLAATCLTKLVSRTNNPLPLEQRIDIRNYVLNYLATRPKLATFVTQALIQLYARITKLGWFDCQKDDYVFRNAITDVTRFLQDSVEYCIIGVTILSQLTNEINQADTTHPLTKHRKIASSFRDSSLFDIFTLSCNLLKQASGKNLNLNDESQHGLLMQLLKLTHNCLNFDFIGTSTDESSDDLCTVQIPTSWRSAFLDSSTLQLFFDLYHSIPPSFSPLVLSCLVQIASVRRSLFNNAERAKFLSHLVDGVKRILENPQSLSDPNNYHEFCRLLARLKSNYQLGELVKVENYPDVIRLIANFTVTSLQHWEFAPNSVHYLLSLWQRLAASVPYVKATEPHMLETYTPEVTKAYITSRLESVHIILRDGLEDPLEDTGLVQQQLDQLSTIGRCEYEKTCALLVQLFDQSAQSYQELLQSASASPMDIAVQEGRLTWLVYIIGAVIGGRVSFASTDEQDAMDGELVCRVLQLMNLTDSRLAQAGNEKLELAMLSFFEQFRKIYIGDQVQKSSKLYRRLSEVLGLNDETMVLSVFIGKVITNLKYWGRCEPITSKTLQLLNDLSIGYSSVRKLVKLSAVQFMLNNHTSEHFSFLGINNQSNLTDMRCRTTFYTALGRLLMVDLGEDEDQYEQFMLPLTAAFEAVAQMFSTNSFNEQEAKRTLVGLVRDLRGIAFAFNAKTSFMMLFEWIYPSYMPILQRAIELWYHDPACTTPVLKLMAELVHNRSQRLQFDVSSPNGILLFRETSKMITMYGNRILTLGEVPKDQVYALKLKGISICFSMLKAALSGSYVNFGVFRLYGDDALENALQTFIKLLLSIPHSDLLDYPKLSQSYYSLLEVLTQDHMNFIASLEPHVIMYILSSISEGLTALDTMVCTGCCSCLDHIVTYLFKQLSRSTKKRTTPLNRESDCFLHIMQQHPAMIQQMLSTVLNIIIFEDCRNQWSMSRPLLGLILLNEKYFSDLRNSIVNSQPPEKQQAMHLCFENLMEGIERNLLTKNRDRFTQNLSAFRREVNDSMKNSTYGVNSNDMMS | binds |  | 
Suppressor of Fused (SuFu), endogenous (protein, UniProt Q9Z0P7 1-484) MAELRPSVAPGPAAPPASGPSAPPAFASLFPPGLHAIYGECRRLYPDQPNPLQVTAIVKYWLGGPDPLDYVSMYRNMGSPSANIPEHWHYISFGLSDLYGDNRVHEFTGTDGPSGFGFELTFRLKRETGESAPPTWPAELMQGLARYVFQSENTFCSGDHVSWHSPLDNSESRIQHMLLTEDPQMQPVRTPFGVVTFLQIVGVCTEELHSAQQWNGQGILELLRTVPIAGGPWLITDMRRGETIFEIDPHLQERVDKGIETDGSNLSGVSAKCAWDDLSRPPEDEEDSRSICLGTQPRRLSGKDTEQIRETLRRGLEINSKPVLPPINSQRQNGLTHDRAPSRKDSLGSDSSTAIIPHELIRTRQLESVHLKFNQESGALIPLCLRGRLLHGRHFTYKSITGDMAITFVSTGVEGAFATEEHPYAAHGPWLQILLTEEFVEKMLEDLEDLTSPEEFKLPKEYSWPEKKLKVSILPDVVFDSPLH | binds |  | 
Xpo7 (overexpressed in HEK293T) (protein, UniProt Q9EPK7 1-1087) MADHVQSLAQLENLCKQLYETTDTTTRLQAEKALVEFTNSPDCLSKCQLLLERGSSSYSQLLAATCLTKLVSRTNNPLPLEQRIDIRNYVLNYLATRPKLATFVTQALIQLYARITKLGWFDCQKDDYVFRNAITDVTRFLQDSVEYCIIGVTILSQLTNEINQADTTHPLTKHRKIASSFRDSSLFDIFTLSCNLLKQASGKNLNLNDESQHGLLMQLLKLTHNCLNFDFIGTSTDESSDDLCTVQIPTSWRSAFLDSSTLQLFFDLYHSIPPSFSPLVLSCLVQIASVRRSLFNNAERAKFLSHLVDGVKRILENPQSLSDPNNYHEFCRLLARLKSNYQLGELVKVENYPDVIRLIANFTVTSLQHWEFAPNSVHYLLSLWQRLAASVPYVKATEPHMLETYTPEVTKAYITSRLESVHIILRDGLEDPLEDTGLVQQQLDQLSTIGRCEYEKTCALLVQLFDQSAQSYQELLQSASASPMDIAVQEGRLTWLVYIIGAVIGGRVSFASTDEQDAMDGELVCRVLQLMNLTDSRLAQAGNEKLELAMLSFFEQFRKIYIGDQVQKSSKLYRRLSEVLGLNDETMVLSVFIGKVITNLKYWGRCEPITSKTLQLLNDLSIGYSSVRKLVKLSAVQFMLNNHTSEHFSFLGINNQSNLTDMRCRTTFYTALGRLLMVDLGEDEDQYEQFMLPLTAAFEAVAQMFSTNSFNEQEAKRTLVGLVRDLRGIAFAFNAKTSFMMLFEWIYPSYMPILQRAIELWYHDPACTTPVLKLMAELVHNRSQRLQFDVSSPNGILLFRETSKMITMYGNRILTLGEVPKDQVYALKLKGISICFSMLKAALSGSYVNFGVFRLYGDDALENALQTFIKLLLSIPHSDLLDYPKLSQSYYSLLEVLTQDHMNFIASLEPHVIMYILSSISEGLTALDTMVCTGCCSCLDHIVTYLFKQLSRSTKKRTTPLNRESDCFLHIMQQHPAMIQQMLSTVLNIIIFEDCRNQWSMSRPLLGLILLNEKYFSDLRNSIVNSQPPEKQQAMHLCFENLMEGIERNLLTKNRDRFTQNLSAFRREVNDSMKNSTYGVNSNDMMS |  | no binding | binds
